Assay results reported in PubChem BioAssay AID504834 (National Center for Advancing Translational Sciences (NCATS), 2011).
About 22,000 (6.9%) of roughly 320,000 compounds were called active. The inconclusive results got no clear call from the source; some entries with a clear call stand among them for comparison. Calls come from the whole dose curve; as a rule, active = well fitted inhibition curve with a large enough effect; inconclusive = small, poorly fitted or top-dose-only effect, or another doubt; inactive = no such curve, though single readings can be large or run the other way. A potency beside an inconclusive call is a rough fit, not a confirmed value.
% is set by controls: 0 for no effect and ±100 for the full control effect; potency is the fitted concentration of half-maximal effect.

Experiment: Primary qHTS for delayed death inhibitors of the malarial parasite plastid, 96 hour incubation
Conditions: P. falciparum luciferase reporter growth; series mostly up to 28.7 µM; activity change, negative = inhibition: at the top concentration
Outline: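 96 h incubation, 37 C, 5% CO2, of luciferase-reporter P. falciparum-infected RBCs (2% hematocrit, 0.05% parasitemia final) with test compounds; endpoint luminescence.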
With `COc1ccc(C(C(=O)NC2CCCCC2)N(CC2CCCO2)C(=O)CNC(=O)c2ccco2)cc1` (stereo unspecified) the “activity change, negative = inhibition” value was inactive: -25%. In the case of `Cc1cccn2c(=O)c3cc(C(=O)NCCC4=CCCCC4)n(C)c3nc12`, the Potency is reported as inconclusive: 11.7 µM [inhibitor, single point]. In the case of `CSc1nnc(NC(=O)c2ccc3c(c2)OCO3)s1`, the “activity change, negative = inhibition” value is reported as inactive: 264%. For `Clc1ccc(CO/N=C(\Cn2ccnc2)c2ccc(Cl)cc2Cl)c(Cl)c1`, the Potency was active: 1.9 µM. In the case of `CC(=O)c1cnc(Nc2cccc(Cl)c2Cl)s1`, the “activity change, negative = inhibition” value is reported as inactive: 31.8%. In the case of `CNC(=S)N(CCCn1ccnc1)Cc1c(F)cccc1Cl`, the Potency is reported as inconclusive: 10.4 µM [inhibitor, single point]. With `Cc1cccc(NC(=O)c2nc[nH]c2C(=O)N[C@@H](CC(C)C)C(=O)OC(C)(C)C)c1` the Potency was inconclusive: 11.7 µM [inhibitor, partial curve]. In the case of `O=C(Cc1csc(NC(=O)Nc2cccc(Cl)c2)n1)NC1CCCC1`, the “activity change, negative = inhibition” value is reported as inactive: 28.5%. For `Cc1cccc(C)c1Nc1c(-c2ccc(N3CCOCC3)cc2)nc2ncccn12`, the Potency was inconclusive: 9.28 µM [inhibitor, single point]. For `CC(C)c1ccc(OC(=O)c2ccc3c(=O)n4c(nc3c2)CCC4)cc1`, the “activity change, negative = inhibition” value was inactive: -8.95%. In the case of `CC(=O)c1ccc(NS(=O)(=O)c2ccc(C(C)(C)C)cc2)cc1`, the Potency is reported as inconclusive: 18.5 µM [inhibitor, single point]. For `COc1ccc(NC(=O)COc2nsnc2N2CCCCC2)cc1`, the Potency was inconclusive: 0.185 µM [inhibitor, full curve, poor fit]. With `CCc1cccc2c(C#N)cn(CC(=O)NCCOC)c12` the “activity change, negative = inhibition” value was inactive: -21%. For `Cn1c(=O)c2c(SCC(=O)N3CCOCC3)nc(C3CC3)nc2n(C)c1=O`, the “activity change, negative = inhibition” value was inactive: 27.7%. In the case of `COc1cccc2sc(NC(=O)c3ccc(S(=O)(=O)N4CCOCC4)cc3)nc12`, the “activity change, negative = inhibition” value is reported as inactive: -1.91%. For `Cc1cc(C)n(-c2ccc(NC(=O)C3CCCCN3C(=O)c3sccc3C)cc2)n1` (stereo unspecified), the Potency was active: 14.7 µM. For `CNC(=S)N(CCCN(C)C)Cc1cc2cc3c(cc2[nH]c1=O)OCCO3`, the Potency was inconclusive: 18.5 µM [inhibitor, single point]. In the case of `CC(C)[C@H](NC(=O)[C@H]1N2C(=O)c3ccccc3C2SC1(C)C)C(=O)NCc1ccco1` (stereo partly specified), the Potency is reported as inconclusive: 11.7 µM [inhibitor, partial curve, poor fit]. With `C/C(CC(=O)Nc1cccnc1)=N\NC(=O)C(=O)Nc1cccc(C)c1` the “activity change, negative = inhibition” value was inactive: 16.6%. With `O=C(NCc1ccccc1)C(c1ccc(O)cc1)N(C(=O)c1cnccn1)c1ccccc1` (stereo unspecified) the “activity change, negative = inhibition” value was inactive: -46.5%. With `c1ccc(C2=Nc3ccccc3SC2c2nc3ccccc3[nH]2)cc1` (stereo unspecified) the Potency was inconclusive: 3.7 µM [inhibitor, full curve, poor fit]. In the case of `Cc1ccc(N(C)C(=O)c2ccc(CNc3c(N4CCC(C)CC4)c(=O)c3=O)cc2)cc1`, the Potency is reported as inconclusive: 13.1 µM [inhibitor, partial curve]. In the case of `C=CCn1c(SCC(=O)Nc2ccccc2C)nc(O)cc1=O`, the “activity change, negative = inhibition” value is reported as inactive: 71.9%. With `O=C(/C=C/c1ccc(Cl)cc1)N(Cc1ccccc1)c1ccccn1` the “activity change, negative = inhibition” value was inactive: -39.4%. For `CCOc1ccc(NC(=O)Nc2ccc(Cc3ccncc3)cc2)cc1`, the Potency was inconclusive: 13.1 µM [inhibitor, single point]. For `Cc1nn(-c2ccccc2)c2c1C1(C(=O)Nc3ccccc31)N1C(=N2)Sc2ccccc21` (stereo unspecified), the Potency was inconclusive: 18.5 µM [inhibitor, partial curve, poor fit]. In the case of `CSc1nnc(-c2cccn(Cc3ccccc3)c2=O)o1`, the Potency is reported as inconclusive: 5.22 µM [inhibitor, partial curve, poor fit]. For `O=C(NNc1ccc([N+](=O)[O-])cc1)c1ccco1`, the Potency was inconclusive: 1.31 µM [inhibitor, partial curve, poor fit]. With `O=C1N(c2ccccc2)C[C@@H]2C[C@@H](c3cccs3)N3CCC[C@@]123` the Potency was inconclusive: 2.94 µM [inhibitor, full curve, poor fit]. In the case of `COC(=O)C(O)(CC(=O)Nc1cc(OC)c(OC)c(OC)c1)C(F)(F)F` (stereo unspecified), the Potency is reported as inconclusive: 6.57 µM [inhibitor, partial curve]. With `CCOC(=O)Nc1ccc(C(=O)/C=C/c2ccccc2)cc1` the Potency was inconclusive: 18.5 µM [inhibitor, single point]. With `O=C(CSc1nnc(-c2cccs2)o1)N1CCCc2ccccc21` the Potency was inconclusive: 10.4 µM [inhibitor, partial curve]. With `CN(CCO)c1ncnc2c1sc1nc(N3CCOCC3)c3c(c12)CCC3` the Potency was inconclusive: 7.38 µM [inhibitor, partial curve]. With `COc1ccc2c(c1OC)C(=O)N(c1nc(SC)n[nH]1)C2=O` the “activity change, negative = inhibition” value was inactive: 167%. With `O=C(NCc1ccon1)C1CCC(=O)N(CCc2cccc(F)c2)C1` (stereo unspecified) the Potency was inconclusive: 18.5 µM [inhibitor, single point]. For `COc1ccc(-c2csc(Nc3cccnc3)n2)cc1`, the “activity change, negative = inhibition” value was inactive: -4.83%. For `O=C(Cc1cccs1)NCCS(=O)(=O)N1CCN(c2cccc(Cl)c2)CC1`, the “activity change, negative = inhibition” value was inactive: -1.58%. In the case of `COCC(C)n1c(SCC(=O)Nc2sccc2C(N)=O)nc2ccccc2c1=O` (stereo unspecified), the Potency is reported as inconclusive: 18.5 µM [inhibitor, single point]. In the case of `COc1cc(OC)cc(C(=O)NC(C)c2ccc(Br)cc2)c1` (stereo unspecified), the Potency is reported as inconclusive: 18.5 µM [inhibitor, single point]. With `COCCNC(=O)Cn1nc(-c2ccccc2C)ccc1=O` the Potency was inconclusive: 10.4 µM [inhibitor, single point]. In the case of `O=C(CSc1nnc(Nc2ccccc2)s1)NC1CC1`, the Potency is reported as inconclusive: 13.1 µM [inhibitor, single point]. In the case of `CCCn1c(SCC(=O)Nc2cccc(S(=O)(=O)N3CCCC3)c2)n[nH]c1=O`, the Potency is reported as inconclusive: 2.62 µM [inhibitor, full curve, poor fit]. In the case of `CNC(=S)N/N=C/c1ccc(N2CCOCC2)s1`, the Potency is reported as inconclusive: 2.08 µM [inhibitor, full curve]. For `Cc1ccc(S(=O)(=O)N2CCCCC2)cc1C(=O)NCc1ccncc1`, the Potency was inconclusive: 7.38 µM [inhibitor, partial curve, poor fit]. For `COc1ccc(/C=C(\NC(=O)c2ccccc2)C(=O)N2CCCCC2)cc1OC`, the “activity change, negative = inhibition” value was inactive: 15%. For `CN(C)CCOc1ccc2c(c1)Sc1ccccc1CC2=O`, the Potency was inconclusive: 11.7 µM [inhibitor, partial curve]. With `O=C(Nc1ccsc1C(=O)NC1CCCCC1)c1ccccc1` the Potency was inconclusive: 5.86 µM [inhibitor, partial curve, poor fit]. With `CCOc1ccc(-n2cc(-c3ccccc3)c3c(SC(C)C(=O)OC)ncnc32)cc1` (stereo unspecified) the Potency was inconclusive: 18.5 µM [inhibitor, single point]. For `C=CCOc1ccc(CNC(C)(C)CO)cc1OCC`, the “activity change, negative = inhibition” value was inactive: 25.6%. For `Cc1ccccc1OCC(=O)Nc1ccc(NC(=O)c2ccco2)cc1`, the Potency was inconclusive: 5.22 µM [inhibitor, full curve, poor fit]. With `Oc1ccccc1/C=N/N1CCCCC1` the “activity change, negative = inhibition” value was inactive: 30.5%. In the case of `Cc1cc(C)n(CCN(C)Cc2nc(Cc3ccccc3F)no2)n1`, the Potency is reported as inconclusive: 8.28 µM [inhibitor, single point]. With `CC(C)CN=CC1=C(O)c2ccccc2C1=O` the “activity change, negative = inhibition” value was inactive: 272%. In the case of `O=C(c1cccc(Br)c1)N1CCN(C(=O)c2cccc(Br)c2)CC1`, the Potency is reported as inconclusive: 10.4 µM [inhibitor, single point]. With `O=C(CSc1nc2ccccc2o1)NCCOc1ccccc1` the Potency was inconclusive: 18.5 µM [inhibitor, single point]. With `CCCCN(C(=O)c1ccc(N(C)S(=O)(=O)c2ccc(C)cc2)cc1)c1c(N)n(CCC)c(=O)[nH]c1=O` the Potency was inconclusive: 13.1 µM [inhibitor, partial curve, poor fit]. For `COc1ccc(-c2csc(NC(=O)c3ccccc3F)n2)cc1`, the Potency was inconclusive: 13.1 µM [inhibitor, partial curve]. In the case of `COc1ccc(OC)c(C2C(C(=O)c3ccccc3)=C(C)Nc3nc4ccccc4n32)c1` (stereo unspecified), the Potency is reported as inconclusive: 18.5 µM [inhibitor, single point]. With `CC(=O)O[C@]1(C(C)=O)CC[C@H]2[C@@H]3C=C(Cl)C4=CC(=O)[C@@H]5C[C@@H]5[C@]4(C)[C@H]3CC[C@@]21C` the Potency was active: 8.49 µM. For `COc1ccc(Br)cc1[C@H]1[C@@H]2C=CCC[C@@]2(C)C(=O)N1Cc1ccccc1`, the Potency was active: 11.7 µM. In the case of `COC(=O)c1cc2sccc2n1Cc1ccc(C)cc1`, the Potency is reported as inconclusive: 1.65 µM [inhibitor, partial curve, poor fit]. For `CCOc1ccc(S(=O)(=O)NC(=O)c2ccccc2)cc1`, the Potency was inconclusive: 10.4 µM [inhibitor, single point]. In the case of `F/C(COc1ccc2c(c1)[nH]c1ccccc12)=C1/CN2CCC1CC2`, the Potency is reported as active: 10.7 µM. For `CCOC(=O)/C(C#N)=C/c1cc2cc(C)c(C)cc2nc1Cl`, the “activity change, negative = inhibition” value was inactive: 53%. In the case of `O=C1N(Cc2cccc(Cl)c2)C[C@@H]2C[C@@H](c3ccc4nonc4c3)N3CCC[C@@]123`, the Potency is reported as inconclusive: 9.28 µM [inhibitor, single point]. In the case of `COc1ccc(CN(C)CC(=O)Nc2cc3oc4ccccc4c3cc2OC)c(OC)c1`, the Potency is reported as active: 9.28 µM. With `O=C(/C=C/c1ccc(Cl)cc1Cl)NCc1ccncc1` the Potency was active: 11.7 µM. For `C/C(CC(=O)Nc1cc(C)ccn1)=N\NC(=O)COc1cccc(C)c1`, the Potency was inconclusive: 18.5 µM [inhibitor, single point]. With `C=CCn1c(C(C)NC(=O)CCC)nc2ccccc21` (stereo unspecified) the “activity change, negative = inhibition” value was inactive: 120%. With `O=C(c1cccc(S(=O)(=O)N2CCOCC2)c1)N(Cc1nnc(-c2ccccc2Cl)o1)C1CC1` the Potency was inconclusive: 9.28 µM [inhibitor, single point]. For `COC(=O)c1cccc(NC(=O)c2ccc(S(=O)(=O)N3CCN(C)CC3)cc2)c1`, the Potency was inconclusive: 0.0026 µM [inhibitor, full curve, poor fit].
